{"source": "patent US20200354475A1", "key": {"[1]": {"target": "CAR comprising the anti-CD19 scFv FMC63 (SEQ ID NO: 1)", "assay": "immunohistochemistry on cells presenting the CAR, PBMC control"}, "[2]": {"target": "CAR comprising the anti-CD19 scFv FMC63 (SEQ ID NO: 1)", "assay": "immunohistochemistry on fixed cell pellets of CAR T cells presenting the FMC63 scFv, PBMC as control"}, "[3]": {"target": "CAR comprising the anti-CD19 scFv FMC63 (SEQ ID NO: 1)", "assay": "immunohistochemistry on cells presenting the CAR"}, "[4]": {"target": "CAR comprising the anti-CD19 scFv FMC63 (SEQ ID NO: 1)", "assay": "flow cytometry, CAR-transduced cells against untransduced cells"}}, "note": "Results are given in words; binding and its absence hold for the method and conditions named. Some results given as binding are weak or reduced against the parent protein; the word gives no strength."}
{"binder": "Clone 13 (antibody, V domains shown) VH: QEQLEESGGDLVKPGGTLTVTCKASGFSFSNNGICWVRQAPGKGLEWIGCLYVGSSDTTYYASWAKGRFTISKSSSTTVTLQMTSLTVADTATYFCTINLGLWGPGTLVTVSS VL: AIVVTQTPSSKSVPVGGTVTINCQASESVYNSDWLAWYQQKPGQPPKQLIYAASTLASGVPSRFKGSGSGTQFTLTISDVVCDDAATYYCAGYKSSSTDGIAFGGGTEVVVKG", "values": [{"measurement": "binding", "setting": "[1]", "value": "binds"}, {"measurement": "binding", "setting": "[2]", "value": "binds"}, {"measurement": "binding", "setting": "[3]", "value": "binds"}]}
{"binder": "Clone 17 (antibody, V domains shown) VH: QSLEESGGGLVKPGASLTLTCTASGFSFSDSWYLCWVRQAPGKGLEWIACIYTGDGDTYYATWAKGRFTISKTSSTTVTLQMTSLTAADTATYFCARGAQFYLWGQGTLVTVSS VL: AQVLTQTPSSVSAAVGGTVTINCQSSQSVYANTYLSWYQQKPGQPPKQLIYSASSLASGVPPRFKGSGSGTQFALTISDVQCDDAATYYCLGRYSCGLADCAAFGGGTEVVVKG", "values": [{"measurement": "binding", "setting": "[4]", "value": "binds"}]}
